## Results of single-concentration screens

The chains behind the UniProt entries cited, without tags or fusion partners. Residues count along the entry.
UniProt A4I591, 1-473: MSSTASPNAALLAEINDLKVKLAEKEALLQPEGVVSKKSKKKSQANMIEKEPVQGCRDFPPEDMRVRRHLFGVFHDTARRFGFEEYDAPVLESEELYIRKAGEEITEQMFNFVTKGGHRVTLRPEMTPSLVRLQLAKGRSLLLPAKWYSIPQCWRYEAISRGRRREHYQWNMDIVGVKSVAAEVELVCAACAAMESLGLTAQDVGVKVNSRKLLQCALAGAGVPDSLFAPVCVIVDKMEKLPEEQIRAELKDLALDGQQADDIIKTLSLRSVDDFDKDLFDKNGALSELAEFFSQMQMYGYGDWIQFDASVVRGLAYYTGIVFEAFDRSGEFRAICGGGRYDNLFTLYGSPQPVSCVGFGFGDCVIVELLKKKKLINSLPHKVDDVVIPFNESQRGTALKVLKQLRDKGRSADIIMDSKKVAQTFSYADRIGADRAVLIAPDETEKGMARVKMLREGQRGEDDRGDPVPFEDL
UniProt Q4DA54, 1-478: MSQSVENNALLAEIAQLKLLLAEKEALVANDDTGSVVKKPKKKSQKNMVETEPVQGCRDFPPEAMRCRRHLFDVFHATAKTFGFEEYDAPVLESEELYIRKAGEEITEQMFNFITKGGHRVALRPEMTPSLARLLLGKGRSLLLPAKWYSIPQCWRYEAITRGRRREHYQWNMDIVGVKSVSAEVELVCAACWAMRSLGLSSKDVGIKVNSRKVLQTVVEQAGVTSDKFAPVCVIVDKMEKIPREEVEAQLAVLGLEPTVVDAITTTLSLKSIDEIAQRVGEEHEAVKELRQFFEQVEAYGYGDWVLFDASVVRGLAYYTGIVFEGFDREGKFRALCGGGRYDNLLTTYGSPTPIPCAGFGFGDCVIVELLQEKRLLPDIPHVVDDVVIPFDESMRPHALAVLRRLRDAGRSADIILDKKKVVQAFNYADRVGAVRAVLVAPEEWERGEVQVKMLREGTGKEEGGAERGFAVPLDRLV

LiHisRS: 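Histidine-tRNA ligase, Leishmania infantum (UniProt A4I591). Enzyme assay of histidyl-tRNA synthetase; the read-out is not stated. Compounds at 30 µM. Higher reads as stronger inhibition (inferred: compounds with an IC50 in retests scored well above the rest). The assay is labelled LdHisRS but filed under L. infantum. Size under these conditions: about 69,000 compounds, about 410 of them at 50% or above in at least one test.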
TcHisRS: 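Histidine-tRNA ligase, Trypanosoma cruzi CL Brener (UniProt Q4DA54). Enzyme assay of histidyl-tRNA synthetase; the read-out is not stated. Compounds at 30 µM. Direction is inferred from retests: higher values go with stronger inhibition. Of about 69,000 compounds tested this way, about 31 (0.045%) reached 50% or more in at least one test.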

Results are given as percent effect. The controls that fix the scale are not given in the record; negative values are as filed. The compounds are a random part of those screened.

structure | LiHisRS | TcHisRS
CS(=O)(=O)NCC1CCCCN1C(=O)c1ccc(Br)s1 (configuration not stated) | -2.941 | 6.878
CCC(C#N)NC(=O)c1cc(Br)c2c(c1)OCCO2 (configuration not stated) | 13.79 | 2.26
CCC(NC(=O)CCCNC(=O)OC)c1cc(F)ccc1F (configuration not stated) | 13.92 | 0.431
Cc1ccc(N2CCCC(NCc3ccc(C)s3)C2)nn1 (configuration not stated) | 12.28 | 4.298
CCO[C@@H]1CC[C@H]2[C@H]1OCCN2C(=O)CC1=CCCCC1 | 3.846 | 3.911
Cc1ccc(-c2cc(CNC(=O)N3CCOC(C)C3)on2)cc1 (configuration not stated) | 15.38 | 2.682
Cc1nn(C)c(C)c1CCC(=O)NCc1csc(N2CCCC2)n1 | 46.27 | 6.383
N#Cc1ccc(CN(CC(N)=O)C2CCCC2)cc1 | 17.54 | 2.521
CCn1cnnc1CNC(=O)NC(C)c1cccs1 (configuration not stated) | 10.96 | -1.527
COC(=O)N1CCCN(Cn2nc(C)c(Br)c2C)CC1 | -6.122 | 3
Cc1ccc(C(=O)N(C)CCOc2ccccc2F)c(=O)[nH]1 | 13.83 | 7.035
COCC1CN(Cc2cccnc2)Cc2nnn(CC3CC3)c21 (configuration not stated) | 20.55 | 9.901
O=C(O)c1ccccc1-c1ccc(CN2CC(c3ccncn3)C2)o1 | 29.37 | 29.94
CN(C)C(=O)NC1COC2(CCN(C(=O)Nc3ccccc3)CC2)C1 (configuration not stated) | 8.029 | 1.639
O=C(O)C1CN(c2cncc(Cc3ccccc3)n2)C1 | 10.14 | 9.091
CN(CC(O)COc1ccc(C(F)(F)F)cc1)C(=O)Nc1nncs1 (configuration not stated) | 22.83 | 4.95
O=C(O)c1cn(-c2ccccn2)c(=O)c2ccccc12 | 22.92 | 9.375
Cc1nc(-c2ccc(CNS(=O)(=O)N(C)C)cc2)ccc1C(N)=O | 12.86 | 7.28
CCCc1noc(CCC(=O)N2CCCC(c3ccn[nH]3)C2)n1 (configuration not stated) | 12.7 | -0.5128
CCCC1CCCN(C(=O)Nc2ccc(F)c(C(N)=O)c2)CC1 (configuration not stated) | 27.06 | 3.139
CN(CCOc1cccc(CN)c1)C1CCOCC1 | 5.769 | 4.167
Cc1n[nH]c2c1C(c1cnn(C)c1)SCC(=O)N2 (configuration not stated) | 11.65 | -0.5464
CS(=O)(=O)NCc1nnc2n1CCN(Cc1ccc(F)cc1)C2 | 18 | -18.63
O=C(Cc1cc(-c2ccc3c(c2)OCO3)on1)NC1CCCC1 | 2.564 | 0
CCCC(=O)N1CCC(c2cc[nH]n2)C1 (configuration not stated) | 8.451 | 2.308
Cn1ccnc1CN(CCO)C(=O)C1CCN(C(=O)C2CC2)CC1 | 10.17 | 4.39
COC[C@H]1CCC[C@H]1Nc1ncnc2c1CCNCC2 | 7.143 | 2.97
O=C1CCc2cc(S(=O)(=O)NC(=O)c3ccc4c(c3)OCO4)ccc2N1 | 17.6 | 0.9804
Cn1cc(CNc2ccc(CCO)cc2)c(-c2ccncc2)n1 | 16.67 | 0
CCCS(=O)(=O)N1CCN(C(C)(C)CO)CC1 | -1.149 | 1.031
CSCCC(O)C(=O)N1CCCN(Cc2ccc(F)cc2)CC1 (configuration not stated) | 9.917 | 0.8403
COc1ccc(CN2CCO[C@H]3CN(C(C)=O)CC[C@H]3C2=O)cc1 | 15.15 | 1.935
COCCNC(=O)C1(CCCc2cccnc2)CCCN1C (configuration not stated) | 0 | 3.448
CC(Nc1cnn(C)c(=O)c1Cl)c1ccc(F)c(F)c1 (configuration not stated) | 25 | -13.66
CC(C)=CCN1CCN(C(=O)COc2ccccc2)[C@H]2CS(=O)(=O)C[C@H]21 | 11.83 | 1.571
CCN1CC[C@]2(CN(C(=O)C3CCOCC3)C[C@H]2c2ccccc2)C1=O | 16.24 | 11.23
Fc1ccc(-c2nc(CNCCn3cccn3)cs2)cc1 | 28.57 | 10.06
Cc1noc(C)c1CN(C)Cc1csc(-c2ccc(C(C)C)cc2)n1 | -11.69 | -6.404
CN(Cc1ccccc1O)CC1CCCN(CCc2ccc(Cl)cc2)C1 (configuration not stated) | 7.692 | 3.614
CCN(CC)S(=O)(=O)N1CCCN(CC2CCCO2)CC1 (configuration not stated) | -5.495 | 1.98
COc1cccc(S(=O)(=O)N2CCC(O)(CN(C)C)C2)c1 (configuration not stated) | 8.571 | 2.151
CC1(C)O[C@@](C)([C@H]2CC3(CCN(c4ncccn4)CC3)CO2)CC[C@@H]1O | 4.196 | 1.13
CC1CCCN(Cc2csc(-c3ncccn3)n2)CC1 (configuration not stated) | 27.69 | 14.18
NC(=O)NCCC(=O)N1CCC(c2cc(-c3ccccc3Cl)n[nH]2)CC1 | 18.03 | 9.091
O=S1(=O)CCC(c2nnc(-c3cnc4onc(C5CCCC5)c4c3)o2)C1 (configuration not stated) | 11.67 | 9.804
Cc1cc(C(=O)N2CCC3(CC2)CC(c2cccnc2)C(=O)N3)no1 (configuration not stated) | 13.83 | 7.035
N#Cc1cccc(CS(=O)(=O)NC(Cc2ccccc2)C(N)=O)c1 (configuration not stated) | 12 | 2.41
Cc1ccc(C(=O)N2CC[C@H]3[C@H]2CCN3CC2CCOCC2)cn1 | 1 | -1.02
O=C(CCCc1ccccn1)N1CCSC2(CCCCC2)C1 | 19.35 | 6.173
Cn1ccnc1C(=O)N1CCOC(Cc2ccc(Cl)cc2)C1 (configuration not stated) | 9.474 | 7.463
c1ccc2oc(CN3CCCC(Cn4cncn4)C3)nc2c1 (configuration not stated) | 14.68 | 6.122
CN(Cc1ccncc1)C(=O)NCc1nnc2n1CCCCC2 | 14.29 | 5.814
CCC(=O)NCc1cc(C2CC2)n(C2CCCC2)n1 | -5.217 | 3.093
Cc1nc(C)n(CC2CCCN(CC(=O)Nc3cccnc3)C2)n1 (configuration not stated) | 8.642 | 2.232
CC[C@H]1CN(C(=O)C(C)(C)C)CC[C@H]1CC(=O)O | 16.67 | 13.86
CCOCCC(=O)NC1(c2cccc(Br)c2)CC1 | 20.55 | 4.926
CC(C)CN1CCCn2nc(CNC(=O)CCCc3cn[nH]c3)cc2C1 | 26.21 | 6.224
CCn1cnc2c(c(Br)nn2C)c1=O | 18.28 | 8.929
Cc1n[nH]c2nc(-c3ccccc3O)cc(C(=O)O)c12 | 5 | 0
Cc1cccc(C(C(=O)NCCCc2ccncc2)N(C)C)c1 (configuration not stated) | 14.29 | 6.667
CCn1ccnc1CN1CCN(CC(O)CN2CCOCC2)CC1 (configuration not stated) | 16.51 | 3.529
CN(C(=O)C1(C#N)CCCCC1)c1nccs1 | 18.58 | -0.4425
O=C(c1cnn2c1OCCC2)N1CCN(C/C=C/c2ccccc2)CC1 | 24.27 | 4.348
CN(C)C(=O)c1cc(-c2cnc(N)nc2)nc2cc(F)ccc12 | 16.24 | 6.667
Nc1cc(N2CCCC2c2cnccn2)ncn1 (configuration not stated) | 27.78 | 3.784
N#Cc1cccc(N2CCCC3(C2)CN(c2ncccn2)CCO3)n1 (configuration not stated) | 22.41 | 7.595
CSc1sc2c(O)cc(=O)[nH]c2c1C(N)=O | 0 | 1.242
Clc1ccc(CN2CCc3c(ncn3C3CC3)C2)c2ncccc12 | 1.042 | 11.6
CCOc1ccccc1-c1noc(CN2CCOC(CN(C)C)C2)n1 (configuration not stated) | 1.653 | -1.681
Cn1cc(C2CCCN2C(=O)COC2CCCCC2)cn1 (configuration not stated) | 3.306 | -2.041
Cc1occc1C(=O)N1CCOC2(CCCC2)C1 | 10.96 | 1.622
CS(=O)(=O)N[C@@H]1CCO[C@]2(CCN(C(=O)c3cscn3)C2)C1 | 12 | 10.78
CN(C)C(=O)c1nn(C)c2c1CN(Cc1cccs1)C2 | 8.065 | -2.632
CC(=O)N1CCCC(c2ccccn2)C1 (configuration not stated) | 0 | 0.7491
CCN1CCC(NC(=O)CN2CCCC2Cn2nc(C)nc2C)CC1 (configuration not stated) | 7.143 | 3.458
Nc1ccnc(N2C[C@@H]3CC[C@H](C2)N(CC2CCC2)C3=O)n1 | 16.13 | 7.895
COc1c(C2CCCN2C(=O)c2cc(C)on2)c(C)nn1C (configuration not stated) | 3.478 | 1.724
O=C(c1cc(Cl)cc(Cl)c1)N1CCN(c2nccs2)CC1 | 17.31 | 0

4 of the entries, repeated:

structure,LiHisRS,TcHisRS
Cc1ccc(-c2cc(CNC(=O)N3CCOC(C)C3)on2)cc1 (configuration not stated),15.38,2.682
CCC(=O)NCc1cc(C2CC2)n(C2CCCC2)n1,-5.217,3.093
N#Cc1ccc(CN(CC(N)=O)C2CCCC2)cc1,17.54,2.521
O=C(c1cnn2c1OCCC2)N1CCN(C/C=C/c2ccccc2)CC1,24.27,4.348

The values are deposited in ChEMBL (CHEMBL3988442, “University of Dundee, Small-Polar-MMV Screening Library” (2021)).